# The supplement of paper PMC4683952
# The list shows a part of the results. Rule as the data show it: active = 2 or more and inactive = the rest. Most values lie within the scatter of the assay; repeated measurements hardly agree.
# Tested on: Lgr5 (MarsCy1-Lgr5-EGFP, U2OS)
# Assay: cell-surface Lgr5 expression (SCi1 fluorescence, background-subtracted) relative to WT DMSO (fold of DMSO control); higher = more Lgr5 at the plasma membrane
# Conditions: U2OS MarsCy1-Lgr5-EGFP stable; treatment time: overnight; library: ActiProbe-5K (TimTec); 25 µM
row,SMILES,cell-surface Lgr5 expression
1,C=CCC1(/C=C/C)CCCCN1.Cl (configuration not stated),inactive: 1.05
2,Sc1nnc(COc2ccccc2)o1,inactive: 1.29
3,Oc1cc(O)c2sc3nc(-c4ccncc4)ccc3c2n1,inactive: 1.15
4,O=[N+]([O-])c1ccc(F)cc1C(F)(F)F,inactive: 1.36
5,[Br-].[NH2+]=c1sc2ccccc2n1C(=O)OCc1ccccc1,inactive: 0.953
6,CC12CCC(=O)C=C1CCC1(C)C2(C)CCC2(C)C(C(=O)CO)CCC21C (configuration not stated),inactive: 1.86
7,COc1ccc(C2Oc3c(ccc4cc(OC)c(OC)cc34)-c3cc(OC)c(OC)cc32)cc1 (configuration not stated),inactive: 1.98
8,C1=CC2c3cccc4c3N(CC2C1)CC1CC=CC41 (configuration not stated),inactive: 1.22
9,Cc1[nH]nc2c1C1(CC(C)N(C)CC1C)C(C#N)=C(N)O2 (configuration not stated),inactive: 1.08
10,CN1C(=O)C2C=CC=CC2N=C1SCC(N)=O (configuration not stated),inactive: 1.14
11,O=c1nc(O)c2sc3nc(C45CC6CC(CC(C6)C4)C5)ccc3c2[nH]1,inactive: 1.64
12,Cc1[nH]c(=O)c(C#N)c2c1COC(C)(C)C2,inactive: 1.29
13,COc1cc(/C=N\c2cc(OC)c(OC)c(OC)c2)cc(OC)c1OC,inactive: 1.07
14,CC(=O)c1nnn(C2CCCCC2)c1NC1CCCCC1,inactive: 1.59
15,CN1CCC2(CC1)C1CN(C)CC=C1C(C#N)=C(N)C2(C#N)C#N (configuration not stated),inactive: 1.35
16,CC(=O)C12CC3CC(CC(C3)C1)C2,inactive: 1.31
17,CCCCCCCCCn1cnc2c1c(=O)n(C)c(=O)n2C,inactive: 1.4
18,O=c1ccnc(NC2CCCCC2)[nH]1,inactive: 1.32
19,CN(C)S(=O)(=O)Nc1ccc2c(c1)Cc1ccccc1-2,inactive: 0.998
20,C1C\C(=N/Nc2nc(c(CCCC)c(n2)C)O)CC1,inactive: 1.07
21,O=c1[nH]c(=O)c2sc3nc(C4CC4)cc(C(F)(F)F)c3c2[nH]1,inactive: 1.15
22,NC(=O)c1nc(NC2CC2)sc1N,inactive: 1.05

row,SMILES,cell-surface Lgr5 expression
1,CN1CCc2c(-c3cccs3)nc(S)c(C#N)c2C1,inactive: 1.1
2,N#C/C(=C/c1cc(CSc2nnc(N)s2)cs1)C(N)=S,inactive: 1.04
3,O=C(O)Cn1cc([N+](=O)[O-])nc1Cl,inactive: 0.93
4,O=C1c2ccccc2-c2nc3nonc3nc21,inactive: 0.617
5,CC(C)Cc1nc2[nH]nc(N)c2c2c1CCCC2,inactive: 1.23
6,c1ccc(N2CCN(c3ccccc3)C2c2ccco2)cc1,inactive: 0.983
7,FC(F)(F)c1ccc2nnc(-c3ccc(Cl)cc3Cl)n2c1,inactive: 0.823
8,NS(=O)(=O)c1cc2c(cc1Cl)NCNS2(=O)=O,inactive: 1.18
9,Brc1cnn(-c2nc(N3CCOCC3)nc(N3CCOCC3)n2)c1,inactive: 0.888
10,CN1C(=O)CN(C(=O)OC(C)(C)C)[C@@H]1C(C)(C)C,inactive: 1.09
11,O=c1c2cccc3cccc(c32)c2nc3ccccc3n12,inactive: 1.34
12,NC(=O)c1cnn2cc(-c3n[nH]cc3[N+](=O)[O-])cnc12,inactive: 1.03
13,CCS(=O)(=O)c1ccc(S(=O)(=O)CC)s1,inactive: 1.15
14,O=[N+]([O-])c1cc(Br)c2nsnc2c1N1CCCCCC1,inactive: 1.21
15,Nc1cc(Br)cc2cccnc12,inactive: 1.05
16,FC(F)(F)c1nnc2ccc(N3CCOCC3)nn12,inactive: 1.42
17,c1cc(-c2nn3c(C4CCCCC4)nnc3s2)ccn1,inactive: 1.15
18,FC(F)(F)Oc1ccc(/N=C\c2ccc[nH]2)cc1,inactive: 0.983
19,CCn1c(S)nc2c(=O)[nH]cnc21,inactive: 1.26
20,C=CCn1c(=O)n([C@@H]2O[C@H](CO)[C@@H](O)[C@H]2O)c2nc(N)[nH]c(=O)c21,inactive: 1.14
21,Cn1cccc1/C=N/NC(=O)c1cccs1,inactive: 1.42
22,Cc1cc2c(cc1C)CSC(c1ccc(N(C)C)cc1)SC2,inactive: 0.982

row,SMILES,cell-surface Lgr5 expression
1,NC(=O)C[n+]1ccc(CCS(=O)(=O)[O-])cc1,inactive: 1.52
2,CC(=O)NC1=NN(C(C)=O)C(c2ccc(Br)s2)S1 (configuration not stated),inactive: 1.36
3,O=C(Nc1ccc(Cl)c(Cl)c1)OC1CC2CCC13CCCC23 (configuration not stated),inactive: 0.792
4,N#CC1=C(NC(=O)c2ccn(C(F)F)n2)CCC1,inactive: 1.05
5,CCCN1CC=C2C(C#N)=C(N)C(C#N)(C#N)C(CC)C2C1 (configuration not stated),inactive: 1.08
6,c1ccc2[nH]c(-c3nc4ccccc4[nH]3)nc2c1,inactive: 0.913
7,Nc1nonc1-c1ccccn1,inactive: 0.761
8,NNc1cccc2ncccc12,inactive: 0.785
9,O=C1NC(=S)N/C1=C/c1ccc(-c2ccc3c(c2)C(=O)NC3=O)o1,active: 2.35
10,COc1cc(-c2nc3sc(-c4cc(OC)c(OC)c(OC)c4)nc3s2)cc(OC)c1OC,inactive: 1.2
11,O=C(N/N=C/c1ccco1)c1ccco1,inactive: 1.11
12,COc1cc(CSc2nnc(C34CC5CC(CC(C5)C3)C4)o2)cc(OC)c1OC,inactive: 1.02
13,Cn1ncc(Cl)c1C(=O)NN,inactive: 1.24
14,NS(=O)(=O)c1ccc(CNS(=O)(=O)c2cc(Cl)ccc2Cl)cc1,inactive: 1.31
15,O=C(O)CC(S/C(=N/C1C=CCCC1)N1CCCCC1)C(=O)O (configuration not stated),inactive: 1.03
16,COc1ccc(-c2nnc(S)o2)cc1OC,inactive: 1.55
17,CC1(C)OCCN2C(=O)OC3(C)CCC1C23C (configuration not stated),inactive: 0.855
18,Cc1ccc(C2C(C(=O)c3ccco3)=C(O)C(=O)N2CCN2CCOCC2)o1 (configuration not stated),inactive: 1.07
19,Cn1cc(-c2cc(C(F)F)c3c(C4CC4)nn(C)c3n2)cn1,inactive: 1.12
20,CC1(C)C2C[C@@H]1CC=C2CCO,inactive: 1.24
21,COc1ccc(S(=O)(=O)c2ccc(OC)c(OC)c2)cc1OC,inactive: 1.33
22,C(=N/N1CCN(C2c3ccccc3-c3ccccc32)CC1)/c1cccnc1,inactive: 0.874

row,SMILES,cell-surface Lgr5 expression
1,CCOC(=O)/C=C(/C)Nc1nonc1NC(C)=O,inactive: 1.08
2,O=C1NC(=S)S/C1=C/C1=C(O)C=CCC1,inactive: 1.19
3,CCC1C(C#N)=C(N)OC2=C1C(=O)OC1C=CC=CC21 (configuration not stated),inactive: 0.825
4,N#CC1=C(N)NC(S)=C(C#N)C12CCCCC2,inactive: 1.15
5,Cc1noc(C)c1NC(=O)C1CCN(S(C)(=O)=O)CC1,inactive: 0.97
6,CC(C)C1(C(C)C)OCCO1,inactive: 1.15
7,COC(=O)CCCC[C@H]1SC[C@@H](NC(C)=O)[C@@H]1OC(C)=O,inactive: 1.29
8,Cc1ccc(S(=O)OC2CC(C)CC[C@H]2C(C)C)cc1 (some centres not stated),inactive: 1.29
9,O=C1Nc2ccc3cn[nH]c3c2C1=O,inactive: 1.17
10,c1csc(C2=N[C@@H](c3cccs3)[C@@H](c3cccs3)N2)c1,inactive: 1.64
11,COc1cc(OC)c(C2C(C#N)=C(N)SC(N)=C2C#N)cc1OC,inactive: 0.989
12,S=C(Nc1ccccc1)NN1CCN(C2c3ccccc3-c3ccccc32)CC1,inactive: 0.844
13,C/C(=N/NC(=O)c1ccoc1C)c1ccco1,inactive: 0.985
14,Cc1ccc(/C=N/n2c(S)nnc2-c2ccc(C(C)(C)C)cc2)cc1,inactive: 0.859
15,C=CCNc1nc(N)c(C(=O)C23CC4CC(CC(C4)C2)C3)s1,inactive: 0.997
16,CS(=O)(=O)N1CCCc2ccccc21,inactive: 1.07
17,CCOC(=O)C(=O)c1nccn1C,inactive: 1.26
18,CC1(C)COCC(C)(C)N1,inactive: 1.18
19,O=C(O)CC(C(=O)OCC1CCCO1)N1CCOCC1 (configuration not stated),inactive: 1.05
20,CSc1nsc(NC(=O)c2nc[nH]n2)n1,inactive: 1.11
21,COc1ccc(-c2nn(CN3CCN(C(c4ccccc4)c4ccccc4)CC3)c(=S)n2C)cc1OC,inactive: 1.05
22,N#CC1(N2CCCCC2)C2CC3CC(C2)CC1C3 (configuration not stated),inactive: 1.17

# A few values from the list:
# Entry of `c1csc(C2=N[C@@H](c3cccs3)[C@@H](c3cccs3)N2)c1` under cell-surface Lgr5 expression: inactive: 1.64
# Entry of `Cc1noc(C)c1NC(=O)C1CCN(S(C)(=O)=O)CC1` under cell-surface Lgr5 expression: inactive: 0.97
# Entry of `CCC1C(C#N)=C(N)OC2=C1C(=O)OC1C=CC=CC21` (configuration not stated) under cell-surface Lgr5 expression: inactive: 0.825
# Entry of `CC1(C)COCC(C)(C)N1` under cell-surface Lgr5 expression: inactive: 1.18
# Entry of `CC(C)C1(C(C)C)OCCO1` under cell-surface Lgr5 expression: inactive: 1.15
# Entry of `O=C1Nc2ccc3cn[nH]c3c2C1=O` under cell-surface Lgr5 expression: inactive: 1.17

# Additional results follow.

row,SMILES,cell-surface Lgr5 expression
1,Fc1ccc(C2N(Cc3ccccc3)CCN2Cc2ccccc2)cc1,inactive: 1.42
2,C/C(=N/N)c1nnn(-c2nonc2N)c1C,inactive: 1.06
3,CC1S/C(=N/N=C\c2ccc(F)cc2)N=C1O (configuration not stated),inactive: 1.13
4,O=S(=O)(Nc1ccc(Br)cn1)c1ccccc1,inactive: 1.2
5,O=C(O)C1Nc2c(Cl)cc(Cl)cc2C2C=CCC12 (configuration not stated),inactive: 1.06
6,O=S(=O)(c1ccc(Br)cc1)N1CCc2ccccc2C1,inactive: 1.37
7,Nc1csnc1-c1nnc(Nc2ccc3c(c2)OCO3)o1,inactive: 1.23
8,OC1(C(F)(F)F)CC(c2cccs2)=NO1 (configuration not stated),inactive: 1.21
9,c1ccc(Cn2cc(Cn3nnc(-c4ccccc4)n3)nn2)cc1,inactive: 1.12
10,Clc1ccc(CSc2ncn[nH]2)cc1Cl,inactive: 1.01
11,N#Cc1c(N)nc2c(sc3nc4c(cc32)CCC4)c1-c1ccc(Br)cc1,inactive: 1.18
12,Fc1ccccc1N1CCN(Cn2cnc3ccccc32)CC1,inactive: 1.35
13,S=c1oc(-c2ccco2)nn1CN1CCOCC1,inactive: 1.13
14,C=CCC1(CC=C)CCCCN1.Cl,inactive: 1.09
15,CC12CC3(C)CC(N)(C1)CC(C(=O)O)(C2)C3,inactive: 1.37
16,CC(C)CC1CCCC(CC(C)C)N1CCO (configuration not stated),inactive: 1.2
17,O=C1CCC(C(=O)O)NC(=O)N1 (configuration not stated),inactive: 1.26
18,O=C(Nc1ccc2c(c1)OC1(CCCC1)O2)C1CC1,inactive: 1.06
19,Brc1ccc(/C=N\c2ccc3cc4ccc(/N=C\c5ccc(Br)cc5)cc4nc3c2)cc1,inactive: 1.32
